The values that follow come from US10517862B2, “Fused heterocyclic compound derivative and application thereof” (NHWA PHARMA. CORPORATION, priority 2015, dated 2019).

Molecules are shown by their SMILES.

The target of assay [1] is T1, 5HT2C receptor (Rattus norvegicus, UniProt P08909).
T1 construct: from tissue; host or cells: rat brain striatum
T1 sequence (P08909 33-460): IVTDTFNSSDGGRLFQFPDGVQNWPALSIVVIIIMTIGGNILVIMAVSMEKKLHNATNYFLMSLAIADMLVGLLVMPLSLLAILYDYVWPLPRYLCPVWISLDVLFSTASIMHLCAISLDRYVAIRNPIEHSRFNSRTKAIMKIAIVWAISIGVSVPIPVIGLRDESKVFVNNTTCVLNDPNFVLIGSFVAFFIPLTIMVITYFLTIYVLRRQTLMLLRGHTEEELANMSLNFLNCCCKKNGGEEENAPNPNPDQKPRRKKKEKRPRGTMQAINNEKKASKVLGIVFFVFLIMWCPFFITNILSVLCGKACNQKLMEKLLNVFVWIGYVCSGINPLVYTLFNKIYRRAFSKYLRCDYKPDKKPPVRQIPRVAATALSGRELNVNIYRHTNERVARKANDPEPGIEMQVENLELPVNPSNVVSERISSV
Description: 5HT2C receptor binding assay ([3H]-mesulergine, rat striatum membrane). The following applies: test compound final concentration 10^−5 M, read-out: 5HT2C Inhibition rate (%). The procedure:
Preparation of 5HT2C Membrane
Rats were decapitated on ice. […] Centrifugation was conducted.
(§1) Materials for the Receptor Binding Assay

Assay [2] concerns α1 norepinephrine receptor. Description: α1 norepinephrine receptor binding assay (3H-prazosin, rat cortex membrane). The conditions noted are these: test compound final concentration 10^−5 M. The text has this: Preparation of Receptor Membrane of Norepinephrine
α1 Norepinephrine Receptor Binding Assay

The target in assay [3] is T2, 5HT1A receptor (Rattus norvegicus, UniProt P19327).
T2 construct: Rats were decapitated on ice; from tissue; host or cells: rat brain striatum
T2 sequence (P19327 1-422): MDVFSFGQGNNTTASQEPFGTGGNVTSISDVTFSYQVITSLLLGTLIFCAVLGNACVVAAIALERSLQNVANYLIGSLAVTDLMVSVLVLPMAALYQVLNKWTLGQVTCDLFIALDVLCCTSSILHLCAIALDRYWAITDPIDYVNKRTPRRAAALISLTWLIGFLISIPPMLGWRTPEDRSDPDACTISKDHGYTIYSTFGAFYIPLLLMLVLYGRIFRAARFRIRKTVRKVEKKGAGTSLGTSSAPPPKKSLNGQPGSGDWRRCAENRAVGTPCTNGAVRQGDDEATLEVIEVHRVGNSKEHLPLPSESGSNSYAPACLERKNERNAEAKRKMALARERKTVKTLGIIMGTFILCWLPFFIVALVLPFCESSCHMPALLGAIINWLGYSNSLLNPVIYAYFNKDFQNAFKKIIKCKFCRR
Description: 5HT1A receptor binding assay (3H-8-OH-DPAT, rat striatum membrane). The following applies: test compound final concentration 10^−5 M, read-out: 5HT1A Inhibition rate (%). The procedure: Preparation of 5HT1A Membrane
Rats were decapitated on ice. […] Incubation at 37° C. was conducted for 10 min. […] Centrifugation was conducted at 12000 rpm, 4° C. for 20 min. […] Centrifugation was conducted and repeated 3 times.
as §1

The inhibition is the drop in the measured response relative to a control, in per cent. As for `Cc1nc2n(c(=O)c1CCN1CCC(c3noc4cc(F)ccc34)CC1)CCCC2` [risperidone], the results for the inhibition at 10 µM in assay [1] and in assay [3] were 105% and 85.2%, respectively. Also, the “α1 Inhibition rate (%)” value in assay [2] is listed as 96.10%.
